Test results as given in PMC7821095.

T1: Plasmodium falciparum chitinase PfCHT1 (P. falciparum (endogenous in NF54 ookinetes)) (UniProt Q8I4R4)
T1 sequence: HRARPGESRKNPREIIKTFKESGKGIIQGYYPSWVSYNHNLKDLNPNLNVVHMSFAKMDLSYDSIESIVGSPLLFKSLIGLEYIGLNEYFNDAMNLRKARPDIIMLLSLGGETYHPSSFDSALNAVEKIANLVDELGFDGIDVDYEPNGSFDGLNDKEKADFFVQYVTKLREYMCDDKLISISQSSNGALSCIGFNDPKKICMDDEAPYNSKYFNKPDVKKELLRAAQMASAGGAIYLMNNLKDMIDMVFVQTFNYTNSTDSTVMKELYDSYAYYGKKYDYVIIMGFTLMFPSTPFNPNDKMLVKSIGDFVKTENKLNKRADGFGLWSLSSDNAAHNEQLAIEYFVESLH


Assays:
[1] = molecular target: T1, Plasmodium falciparum chitinase PfCHT1 (P. falciparum (endogenous in NF54 ookinetes)); assay: affinity purification with mass spectrometry; chitin beads in filtered serum-free P. falciparum ookinete culture supernatant; washed three times with PBS; proteins detached in 8M urea, LysC and trypsin, Orbitrap Fusion; normalized against zygote culture supernatant pull-down
[2] = molecular target: T1, Plasmodium falciparum chitinase PfCHT1 (P. falciparum (endogenous in NF54 ookinetes)); assay: mass spectrometry of the high molecular weight SDS-PAGE gel slice; P. falciparum chitin bead pull-down; SDS-PAGE gel slices including the PfCHT1 HMW complex and the 37 kDa PfCHT1, 1C3-positive bands under reduced and non-reduced conditions
[3] = molecular target: T1, Plasmodium falciparum chitinase PfCHT1 (P. falciparum (endogenous in NF54 ookinetes)); assay: affinity purification with mass spectrometry; chitin beads in filtered serum-free P. falciparum ookinete culture supernatant; washed three times with PBS; proteins detached in 8M urea, LysC and trypsin, Orbitrap Fusion; normalized against zygote culture supernatant pull-down; remark: listed apart in the source

Row | Molecule | binding [1] | binding [2] | binding [3]
1 | Plasmodium falciparum secreted ookinete adhesive protein (SOAP) | binds |  | 
2 | Plasmodium falciparum von Willebrand factor A domain-related protein (WARP) | binds | binds | 
3 | Plasmodium falciparum fructose-bisphosphate aldolase (enzyme, UniProt Q7KQL9 1-369) MAHCTEYMNAPKKLPADVAEELATTAQKLVQAGKGILAADESTQTIKKRFDNIKLENTIENRASYRDLLFGTKGLGKFISGAILFEETLFQKNEAGVPMVNLLHNENIIPGIKVDKGLVNIPCTDEEKSTQGLDGLAERCKEYYKAGARFAKWRTVLVIDTAKGKPTDLSIHETAWGLARYASICQQNRLVPIVEPEILADGPHSIEVCAVVTQKVLSCVFKALQENGVLLEGALLKPNMVTAGYECTAKTTTQDVGFLTVRTLRRTVPPALPGVVFLSGGQSEEEASVNLNSINALGPHPWALTFSYGRALQASVLNTWQGKKENVAKAREVLLQRAEANSLATYGKYKGGAGGENAGASLYEKKYVY |  |  | binds

Results are given in words; binding and its absence hold for the method and conditions named. In cells and extracts the contact can be indirect. A yes stands for co-enrichment or nearness to the bait. Other partners may have been found.
